Test results taken from publication PMC8262361.
Like-named read-outs stand apart in the source and are kept apart here. These are yes or no findings as the source states them, for the method shown. Binding seen in cells or lysates may run through a third protein. These calls come from enrichment with a bait or labelling near it, and not all partners need be listed.

Chains of the proteins cited; added tags and fusions are not shown. Lines headed by an entry give the natural chain unless they say otherwise; changes in a name come on top.
UniProt P16070: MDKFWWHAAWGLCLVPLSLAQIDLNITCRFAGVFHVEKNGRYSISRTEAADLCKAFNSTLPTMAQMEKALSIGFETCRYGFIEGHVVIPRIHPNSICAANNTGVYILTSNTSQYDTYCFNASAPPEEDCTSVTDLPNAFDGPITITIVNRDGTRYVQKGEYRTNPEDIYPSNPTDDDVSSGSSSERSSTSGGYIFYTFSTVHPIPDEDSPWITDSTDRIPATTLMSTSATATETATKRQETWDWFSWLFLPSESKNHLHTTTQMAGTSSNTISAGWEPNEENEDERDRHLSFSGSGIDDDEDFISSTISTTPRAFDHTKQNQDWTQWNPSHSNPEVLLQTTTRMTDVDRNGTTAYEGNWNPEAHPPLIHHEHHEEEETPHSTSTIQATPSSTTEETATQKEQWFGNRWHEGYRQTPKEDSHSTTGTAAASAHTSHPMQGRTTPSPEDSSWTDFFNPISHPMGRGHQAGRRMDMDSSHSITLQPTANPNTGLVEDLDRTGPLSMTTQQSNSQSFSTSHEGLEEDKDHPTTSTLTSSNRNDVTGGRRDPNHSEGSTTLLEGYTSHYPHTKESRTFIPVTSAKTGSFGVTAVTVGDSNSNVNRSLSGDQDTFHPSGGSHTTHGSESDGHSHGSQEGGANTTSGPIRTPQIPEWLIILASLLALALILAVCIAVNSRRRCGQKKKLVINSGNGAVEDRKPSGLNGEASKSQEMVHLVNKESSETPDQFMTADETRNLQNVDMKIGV
UniProt P51532: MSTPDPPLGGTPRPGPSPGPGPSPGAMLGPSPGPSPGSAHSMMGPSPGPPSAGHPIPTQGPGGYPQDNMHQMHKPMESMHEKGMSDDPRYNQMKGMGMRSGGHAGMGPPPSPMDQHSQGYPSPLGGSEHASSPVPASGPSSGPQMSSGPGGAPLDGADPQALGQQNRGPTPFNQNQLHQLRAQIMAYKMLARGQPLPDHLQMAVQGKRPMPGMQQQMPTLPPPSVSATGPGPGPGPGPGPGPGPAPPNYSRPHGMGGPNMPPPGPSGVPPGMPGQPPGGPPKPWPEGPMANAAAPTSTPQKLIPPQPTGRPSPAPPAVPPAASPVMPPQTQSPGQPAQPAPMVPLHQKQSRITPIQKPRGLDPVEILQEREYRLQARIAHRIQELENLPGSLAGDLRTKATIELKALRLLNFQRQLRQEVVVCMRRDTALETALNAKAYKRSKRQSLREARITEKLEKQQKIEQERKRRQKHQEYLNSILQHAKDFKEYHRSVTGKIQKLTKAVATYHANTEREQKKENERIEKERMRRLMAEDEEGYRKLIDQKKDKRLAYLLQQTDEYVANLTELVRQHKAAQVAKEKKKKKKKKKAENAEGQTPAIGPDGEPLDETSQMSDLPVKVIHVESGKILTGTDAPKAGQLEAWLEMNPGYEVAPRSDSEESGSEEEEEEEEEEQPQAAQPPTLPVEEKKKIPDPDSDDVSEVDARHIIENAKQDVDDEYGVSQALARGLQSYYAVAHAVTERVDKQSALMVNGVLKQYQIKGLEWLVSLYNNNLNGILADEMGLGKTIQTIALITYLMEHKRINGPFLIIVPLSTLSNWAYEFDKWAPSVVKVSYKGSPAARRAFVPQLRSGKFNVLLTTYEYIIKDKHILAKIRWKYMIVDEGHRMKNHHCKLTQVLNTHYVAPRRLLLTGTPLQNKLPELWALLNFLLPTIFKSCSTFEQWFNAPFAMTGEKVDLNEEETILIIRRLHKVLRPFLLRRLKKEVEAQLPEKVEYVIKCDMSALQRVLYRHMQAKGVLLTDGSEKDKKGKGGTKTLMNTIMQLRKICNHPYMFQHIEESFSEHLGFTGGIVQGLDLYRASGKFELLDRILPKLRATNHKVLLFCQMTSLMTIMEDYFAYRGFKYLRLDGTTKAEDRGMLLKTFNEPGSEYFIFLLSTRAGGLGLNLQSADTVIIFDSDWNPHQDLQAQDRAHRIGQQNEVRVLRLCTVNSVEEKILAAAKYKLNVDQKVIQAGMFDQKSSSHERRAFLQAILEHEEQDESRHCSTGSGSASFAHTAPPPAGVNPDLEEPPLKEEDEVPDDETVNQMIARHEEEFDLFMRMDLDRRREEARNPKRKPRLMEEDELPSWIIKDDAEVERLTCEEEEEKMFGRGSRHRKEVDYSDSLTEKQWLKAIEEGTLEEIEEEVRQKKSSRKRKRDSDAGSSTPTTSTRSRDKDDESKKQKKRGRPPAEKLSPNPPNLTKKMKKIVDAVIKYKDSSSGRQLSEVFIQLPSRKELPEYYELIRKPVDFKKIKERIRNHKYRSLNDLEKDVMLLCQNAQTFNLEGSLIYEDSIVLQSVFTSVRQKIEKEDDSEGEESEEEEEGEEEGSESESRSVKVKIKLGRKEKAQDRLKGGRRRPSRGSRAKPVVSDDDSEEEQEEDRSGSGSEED

Key:
[1] = molecular target: CD44 (human (endogenous in IPF MPCs)) (UniProt P16070); experiment: affinity purification with mass spectrometry; CD44 immunoprecipitated with CD44 antibody (2C5, R&D Systems) from nuclear lysates (NE-PER) of CD44hi IPF MPCs treated with IL-8; isotype antibody as control; SDS-PAGE, silver stain, in-gel trypsin digestion, Orbitrap Velos
[2] = molecular target: CD44 (human (endogenous in IPF MPCs)) (UniProt P16070); experiment: as above; remark: listed apart in the source

binding [1]	binding [2]	Molecule
binds		Brahma-related gene 1 (Brg1) (from UniProt P51532 1-1647)
	binds	zinc finger E-box binding homeobox 1 (Zeb1) (protein, UniProt P37275 1-1124) MADGPRCKRRKQANPRRNNVTNYNTVVETNSDSDDEDKLHIVEEESVTDAADCEGVPEDDLPTDQTVLPGRSSEREGNAKNCWEDDRKEGQEILGPEAQADEAGCTVKDDECESDAENEQNHDPNVEEFLQQQDTAVIFPEAPEEDQRQGTPEASGHDENGTPDAFSQLLTCPYCDRGYKRFTSLKEHIKYRHEKNEDNFSCSLCSYTFAYRTQLERHMTSHKSGRDQRHVTQSGCNRKFKCTECGKAFKYKHHLKEHLRIHSGEKPYECPNCKKRFSHSGSYSSHISSKKCISLIPVNGRPRTGLKTSQCSSPSLSASPGSPTRPQIRQKIENKPLQEQLSVNQIKTEPVDYEFKPIVVASGINCSTPLQNGVFTGGGPLQATSSPQGMVQAVVLPTVGLVSPISINLSDIQNVLKVAVDGNVIRQVLENNQANLASKEQETINASPIQQGGHSVISAISLPLVDQDGTTKIIINYSLEQPSQLQVVPQNLKKENPVATNSCKSEKLPEDLTVKSEKDKSFEGGVNDSTCLLCDDCPGDINALPELKHYDLKQPTQPPPLPAAEAEKPESSVSSATGDGNLSPSQPPLKNLLSLLKAYYALNAQPSAEELSKIADSVNLPLDVVKKWFEKMQAGQISVQSSEPSSPEPGKVNIPAKNNDQPQSANANEPQDSTVNLQSPLKMTNSPVLPVGSTTNGSRSSTPSPSPLNLSSSRNTQGYLYTAEGAQEEPQVEPLDLSLPKQQGELLERSTITSVYQNSVYSVQEEPLNLSCAKKEPQKDSCVTDSEPVVNVIPPSANPINIAIPTVTAQLPTIVAIADQNSVPCLRALAANKQTILIPQVAYTYSTTVSPAVQEPPLKVIQPNGNQDERQDTSSEGVSNVEDQNDSDSTPPKKKMRKTENGMYACDLCDKIFQKSSSLLRHKYEHTGKRPHECGICKKAFKHKHHLIEHMRLHSGEKPYQCDKCGKRFSHSGSYSQHMNHRYSYCKREAEERDSTEQEEAGPEILSNEHVGARASPSQGDSDERESLTREEDEDSEKEEEEEDKEMEELQEEKECEKPQGDEEEEEEEEEVEEEEVEEAENEGEEAKTEGLMKDDRAESQASSLGQKVGESSEQVSEEKTNEA
